Data published in patent US20180051253A1.

The chains behind the UniProt entries cited, without tags or fusion partners.
UniProt Q9NRC8: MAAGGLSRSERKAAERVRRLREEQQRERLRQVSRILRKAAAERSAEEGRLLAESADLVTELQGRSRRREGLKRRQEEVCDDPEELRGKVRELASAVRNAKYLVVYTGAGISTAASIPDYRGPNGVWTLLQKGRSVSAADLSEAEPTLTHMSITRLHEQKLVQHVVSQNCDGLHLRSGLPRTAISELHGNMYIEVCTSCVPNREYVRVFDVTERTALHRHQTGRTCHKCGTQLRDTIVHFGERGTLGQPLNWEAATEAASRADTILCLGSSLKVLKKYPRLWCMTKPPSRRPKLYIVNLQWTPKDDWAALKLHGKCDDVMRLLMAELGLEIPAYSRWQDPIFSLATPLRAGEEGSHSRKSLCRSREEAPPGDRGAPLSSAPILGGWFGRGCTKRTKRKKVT

Biological target: T1, Nuclear Respiratory Factor 1 (NRF1) (UniProt Q16656)
T1 sequence (looked up): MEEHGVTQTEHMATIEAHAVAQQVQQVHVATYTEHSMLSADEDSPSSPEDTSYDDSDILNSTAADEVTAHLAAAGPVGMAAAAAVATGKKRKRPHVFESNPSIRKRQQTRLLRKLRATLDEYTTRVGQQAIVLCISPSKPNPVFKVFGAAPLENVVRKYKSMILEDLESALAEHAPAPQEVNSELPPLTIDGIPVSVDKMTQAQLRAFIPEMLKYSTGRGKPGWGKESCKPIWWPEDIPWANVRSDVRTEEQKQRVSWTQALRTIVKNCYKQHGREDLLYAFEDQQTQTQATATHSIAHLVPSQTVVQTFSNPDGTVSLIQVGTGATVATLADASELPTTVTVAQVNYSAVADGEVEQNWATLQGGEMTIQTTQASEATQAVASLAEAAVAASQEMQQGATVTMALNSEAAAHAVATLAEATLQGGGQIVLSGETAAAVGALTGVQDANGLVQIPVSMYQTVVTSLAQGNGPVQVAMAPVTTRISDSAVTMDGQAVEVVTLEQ
Assay: co-immunoprecipitation from 293T cells (Flag-resin); also affinity purification and mass spectrometry of the Flag-SIRT7 interactome

## Flag-tagged SIRT7 (from UniProt Q9NRC8 1-400) (enzyme)
  binding: binds

These are yes or no findings as the source states them, for the method shown. Binding seen in cells or lysates may run through a third protein. Here binding means that the protein was enriched with, or labelled near, the bait; the list need not be complete.
